Source: patent US7705012B2 (priority 2004, dated 2010)

Test: general procedure: Fmoc solid-phase peptide synthesis; Sasrin resin; HOBT, TBTU, DIEA
Conditions: whole synthesis, scale 0.69 mmol, trifluoroacetate

c(Ary(Pmc)-Gly-Asp(OtBu)-D-Phe-Aad) gave an isolated mass of 187 mg.
